Reference: article PMC4422687
These are yes or no findings as the source states them, for the method shown. Binding can be weak; no strength is given. Tags and fused reporters may be left off the sequences shown.

Experiments:
Assay in all cases: flow cytometry on cells; H variants on receptor-negative Vero cells, 1 h at 4°C with concentrated soluble HA-tagged SLAM supernatant (1:20), no mAb before; anti-HA MFI normalised to anti-FLAG MFI and to H-wt (100%)
[1] = biological target: CDV H mutant P127A (canine distemper virus, strain A75/17)
[2] = biological target: CDV H mutant W138A (canine distemper virus, strain A75/17)
[3] = biological target: H-short (-11), CDV H with stalk residues 125-135 deleted (canine distemper virus, strain A75/17)

Measured: binding

B1: soluble HA-tagged canine SLAM (receptor, UniProt Q95MM9 27-237)
chain: ESLMNCPEVPGKLGSSLQLSLASEGISKRMNKSIHILVTRAESPGNSIKKKIVSLDLPEGGSPRYLENGYKFHLENLTLRILESRRENEGWYFMTLEENFSVQHFCLQLKLYEQVSTPEIKVLNWTQENGNCSMMLACEVEKGDNVVYSWSEKLGIDPLIPANSSHLLHLSLGPQHVNNVYVCTVSNPVSNRSWSFNPWSKCRPESSVPRQ
binds: all assays above
